Assay results taken from PMC12320503.
No constants are given. Whether binding was seen depends on the method and setting. Binding seen in cells or lysates may run through a third protein. These calls come from enrichment with a bait or labelling near it, and not all partners need be listed. Sequences can lack the tags named with a protein.

Molecular target: T1, Flag-SIRT4 (Sirtuin 4), stably overexpressed in AML12 hepatocytes (UniProt Q8R216)
T1 sequence: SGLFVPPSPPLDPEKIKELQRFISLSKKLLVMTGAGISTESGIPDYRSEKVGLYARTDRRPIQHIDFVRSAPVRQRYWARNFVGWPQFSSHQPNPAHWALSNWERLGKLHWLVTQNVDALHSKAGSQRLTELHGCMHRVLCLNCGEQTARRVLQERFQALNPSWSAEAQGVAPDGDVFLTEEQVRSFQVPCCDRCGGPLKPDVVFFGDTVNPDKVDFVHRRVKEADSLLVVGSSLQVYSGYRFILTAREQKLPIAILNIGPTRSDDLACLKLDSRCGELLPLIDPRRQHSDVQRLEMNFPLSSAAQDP
Test: affinity purification with mass spectrometry; lysate of SIRT4-overexpressing (Flag-SIRT4) AML12 cells after H/R; anti-flag antibody with protein A/G agarose beads overnight at 4°C; LC-MS/MS, Flag cells as control

B1: peroxiredoxin 3 (PRDX3), endogenous in AML12 hepatocytes (protein, UniProt P20108 63-257)
chain: TPAVTQHAPYFKGTAVVNGEFKELSLDDFKGKYLVLFFYPLDFTFVCPTEIVAFSDKANEFHDVNCEVVAVSVDSHFSHLAWINTPRKNGGLGHMNITLLSDITKQISRDYGVLLESAGIALRGLFIIDPNGVVKHLSVNDLPVGRSVEETLRLVKAFQFVETHGEVCPANWTPESPTIKPSPTASKEYFEKVHQ
binding: binds
